This is an account of results in patent US20110040077.

Chains of the proteins cited; added tags and fusions are not shown. Lines headed by an entry give the natural chain unless they say otherwise; changes in a name come on top.
UniProt O29494: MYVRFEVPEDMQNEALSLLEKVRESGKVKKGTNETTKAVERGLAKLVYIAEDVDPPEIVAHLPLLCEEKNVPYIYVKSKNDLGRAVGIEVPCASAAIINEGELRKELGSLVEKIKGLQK

In series [1] the target is L7Ae (Archaeoglobus fulgidus) (UniProt O29494). Description: inhibition of the protein. The conditions noted are these: purified recombinant protein, protein details: His tag (pET-28b+, NdeI/XhoI).
For series [2] the target is unchanged. Description: competition with a labelled probe. The following applies: Box C/D competitor restores translation of L7-UTR2 inhibited by L7Ae; purified recombinant protein; protein details: His tag (pET-28b+, NdeI/XhoI); label: 32P.
The target is the same in series [3]. As to the kind of experiment: activity assay. The conditions noted are these: L7Ae restores translation of ON switch mRNA blocked by antisence RNA (PURE system); purified recombinant protein; protein details: His tag (pET-28b+, NdeI/XhoI).

For some of these results: For at least one entry, the source does not settle the construct or the ends of the probe. For some of these results: A weaker result is weaker than the reference pair of the same experiment.

For “GGGAGACCACAACGGUUUCCCUCUAGAAAUAAUUUUGUUUAACUUUAAGAAGGAGAUAUACCAAUGGGGCGUGAUGCGAAAGCUGACCCUGCCUCCUCCGAGGACGUCAUCAAGGAGUUCAUGCGCUUCAAGGUGCGCAUGGAGGGCUCCGUGAACGGCCACGAGUUCGAGAUCGAGGGCGAGGGCGAGGGCCGCCCCUACGAGGGCACCCAGACCGCCAAGCUGAAGGUGACCAAGGGCGGCCCCCUGCCCUUCGCCUGGGACAUCCUGUCCCCCCAGUUCCAGUACGGCUCCAAGGUGUACGUGAAGCACCCCGCCGACAUCCCCGACUACAAGAAGCUGUCCUUCCCCGAGGGCUUCAAGUGGGAGCGCGUGAUGAACUUCGAGGACGGCGGCGUGGUGACCGUGACCCAGGACUCCUCCCUGCAGGACGGCUCCUUCAUCUACAAGGUGAAGUUCAUCGGCGUGAACUUCCCCUCCGACGGCCCCGUAAUGCAGAAGAAGACUAUGGGCUGGGAGGCCUCCACCGAGCGCCUGUACCCCCGCGACGGCGUGCUGAAGGGCGAGAUCCACAAGGCCCUGAAGCUGAAGGACGGCGGCCACUACCUGGUGGAGUUCAAGUCCAUCUACAUGGCCAAGAAGCCCGUGCAGCUGCCCGGCUACUACUACGUGGACUCCAAGCUGGACAUCACCUCCCACAACGAGGACUACACCAUCGUGGAGCAGUACGAGCGCGCCGAGGGCCGCCACCACCUGUUCCUGUAGUAAUGAAUA [Box C/D-DsRed-Ex mRNA]”, the functional effect result in series [1] (translation repression in PURE system) is on record as “active”. Take “GGGAGACCACAACGGUUUCCCUCUAGAAAUAAUUUUGUUUAACUUUAAGAAGGAGAUAUACCAAUGGCCUCCUCCGAGGACGUCAUCAAGGAGUUCAUGCGCUUCAAGGUGCGCAUGGAGGGCUCCGUGAACGGCCACGAGUUCGAGAUCGAGGGCGAGGGCGAGGGCCGCCCCUACGAGGGCACCCAGACCGCCAAGCUGAAGGUGACCAAGGGCGGCCCCCUGCCCUUCGCCUGGGACAUCCUGUCCCCCCAGUUCCAGUACGGCUCCAAGGUGUACGUGAAGCACCCCGCCGACAUCCCCGACUACAAGAAGCUGUCCUUCCCCGAGGGCUUCAAGUGGGAGCGCGUGAUGAACUUCGAGGACGGCGGCGUGGUGACCGUGACCCAGGACUCCUCCCUGCAGGACGGCUCCUUCAUCUACAAGGUGAAGUUCAUCGGCGUGAACUUCCCCUCCGACGGCCCCGUAAUGCAGAAGAAGACUAUGGGCUGGGAGGCCUCCACCGAGCGCCUGUACCCCCGCGACGGCGUGCUGAAGGGCGAGAUCCACAAGGCCCUGAAGCUGAAGGACGGCGGCCACUACCUGGUGGAGUUCAAGUCCAUCUACAUGGCCAAGAAGCCCGUGCAGCUGCCCGGCUACUACUACGUGGACUCCAAGCUGGACAUCACCUCCCACAACGAGGACUACACCAUCGUGGAGCAGUACGAGCGCGCCGAGGGCCGCCACCACCUGUUCCUGUAGUAAUGAAUA [DsRed-Ex control mRNA]”: the functional effect result in series [1] (no motif, slight repression only at 5-10 uM L7Ae, variant of Box C/D-DsRed-Ex …) was “less active”.

On to “GGCCAGAGUGGGCGUGAUGCAUGUCUAGGAAACUAGACAUGCUGACCCACUCUGGCC [Box C/D]”, for which the functional effect result in series [2] is “active”. Take “GGUGGGCGUGAUGCGAAAGCUGACCCACC [antisence RNA (contains Box C/D mini)]”: the functional effect entry in series [3] is given as “active”.
